From ChEMBL document CHEMBL1148436, “Structural determinants for high 5-HT(2A) receptor affinity of spiro[9,10-dihydroanthracene]-9,3(')-pyrrolidine (SpAMDA)” (Bioorg Med Chem Lett, 2004) come the findings set out here.

The target of this assay is Sodium-dependent noradrenaline transporter (Homo sapiens, UniProt P23975). Put plainly: Binding affinity towards Norepinephrine transporter using [3H]nisoxitine as radioligand.

As usually defined, the Ki is a dissociation constant, usually derived from enzyme kinetics or from competition with a known ligand. Read a low Ki as higher affinity.

Regarding `CN1CCC(=C2c3ccccc3C=Cc3ccccc32)CC1` [CYPROHEPTADINE], the Ki turned out to be 290 nM. That is a sub-micromolar value.
